Results published in PubChem BioAssay AID256 (DTP/NCI, 2004).
The list shows only some results of the screen, not a fair sample: it gathers tests that were run many times, whatever their T/C, doses with no T/C, and many T/C values between a quarter and a half above the control. Further doses and runs are listed elsewhere. T/C is the treated group as % of the vehicle group. Some doses have a count of surviving animals in place of a T/C: the source files T/C as zero there, which appears to mark a toxic dose or a test without result, not a measured value. Some survivor counts are full or nearly so, which does not show that the dose was tolerated: the source hardly ever lists a survival T/C far under the control, and the zero likely stands for such cases as well. Survivors were counted at the toxicity check, usually on the fifth day, unless a day is given; later deaths do not show. Schedule codes are those of the source, read here as Q, the interval in days (D) or hours (H), X, the number of doses. Some entries hold several experiments; the values are given in rising order. For survival time, the PubChem record calls one and a half times the control and up active, and a quarter to a half above the control has no call in these data; cut-offs in other NCI protocols can differ. Additions like (4×) say how often a value occurs here. Some T/C values carry the count of animals alive at the toxicity check (mostly the fifth day); without a count, all were alive then.

Test system: CD2F1 mice, L1210 leukemia ip, survival T/C
Test: NCI In Vivo Anticancer Drug Screen. Data for tumor model L1210 Leukemia (intraperitoneal) in CD2F1 (CDF1) mice
Conditions: higher T/C = longer survival
How it was run: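 Tumor-bearing mice (transplanted tumor) were split into treated and vehicle control groups, and the measured endpoint of each treated group was divided by that of its vehicle controls.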

[1] = T/C endpoint: mean survival time, dose: 100.0 mg/kg/injection, schedule: Q04DX003 (ip), vehicle: saline with Tween-80
[2] = T/C endpoint: mean survival time, dose: 200.0 mg/kg/injection, schedule: Q04DX003 (ip), vehicle: saline with Tween-80
[3] = T/C endpoint: mean survival time, dose: 400.0 mg/kg/injection, schedule: Q04DX003 (ip), vehicle: saline with Tween-80
[4] = T/C endpoint: mean survival time, dose: 200.0 mg/kg/injection, schedule: Q04DX003 (ip), vehicle: saline
[5] = T/C endpoint: mean survival time, dose: 400.0 mg/kg/injection, schedule: Q04DX003 (ip), vehicle: saline
[6] = T/C endpoint: mean survival time, dose: 400.0 mg/kg/injection, schedule: Q01DX001 (ip), vehicle: saline
[7] = T/C endpoint: mean survival time, dose: 50.0 mg/kg/injection, schedule: Q04DX003 (ip), vehicle: saline with Tween-80
[8] = T/C endpoint: mean survival time, dose: 200.0 mg/kg/injection, schedule: Q01DX009 (ip), vehicle: saline with Tween-80
[9] = T/C endpoint: mean survival time, dose: 25.0 mg/kg/injection, schedule: Q01DX009 (ip), vehicle: saline
[10] = T/C endpoint: mean survival time, dose: 50.0 mg/kg/injection, schedule: Q01DX009 (ip), vehicle: saline
[11] = T/C endpoint: mean survival time, dose: 100.0 mg/kg/injection, schedule: Q04DX003 (ip), vehicle: saline
[12] = T/C endpoint: mean survival time, dose: 100.0 mg/kg/injection, schedule: Q04DX002 (ip), vehicle: saline with Tween-80
[13] = T/C endpoint: mean survival time, dose: 400.0 mg/kg/injection, schedule: Q01DX009 (ip), vehicle: saline with Tween-80

COc1cc(Cc2cnc(NC(C)=O)nc2NC(C)=O)cc(OC)c1OC
survivor count [1]: 6 of 6
survivor count [2]: 6 of 6

CNC(=O)/C=C/C1=CN2C(=O)c3ccc(C)c(O)c3NC(OC)C2C1 (centres undefined)
T/C (T/C endpoint: mean survival time, dose: 0.2 mg/kg/injection, schedule: Q01DX009 (ip), vehicle: saline): 129 % of control
survivor count (T/C endpoint: mean survival time, dose: 0.4 mg/kg/injection, schedule: Q01DX009 (ip), vehicle: saline): 2 of 10 and 6 of 6

CNP1(=O)OC(c2ccccc2)=CCN1CCCl (centres undefined)
survivor count (T/C endpoint: median survival time, dose: 500.0 mg/kg/injection, schedule: Q01DX001 (ip), vehicle: distilled water + Tween-80): 2 of 6

C[N+](C)(CCO)Cc1ccccc1
survivor count [2]: 4 of 6
survivor count [3]: 0 of 6

CCCCS(=O)(=O)F
survivor count (T/C endpoint: mean survival time, dose: 100.0 mg/kg/injection, schedule: Q04DX002 (ip), vehicle: saline): 1 of 3

CC1OC(n2cc(C(N)=O)c3c(N)ncnc32)C(O)C1O (centres undefined)
survivor count (T/C endpoint: mean survival time, dose: 200.0 mg/kg/injection, schedule: Q01DX009 (ip), vehicle: saline): 3 of 6
survivor count (T/C endpoint: mean survival time, dose: 400.0 mg/kg/injection, schedule: Q01DX009 (ip), vehicle: saline): 2 of 6

COc1ccc(C(=O)NC[n+]2ccccc2)cc1
survivor count [4]: 0 of 6
survivor count [5]: 0 of 6

O=C(O)CCC(=O)CCC(=O)c1ccccc1
survivor count [2]: 6 of 6
survivor count [3]: 6 of 6

CN(Cc1cnc2nc(N[Si](C)(C)C)nc(N[Si](C)(C)C)c2n1)c1ccc(C(=O)NC(CCC(=O)O[Si](C)(C)C)C(=O)O[Si](C)(C)C)cc1 (centres undefined)
T/C (T/C endpoint: mean survival time, dose: 0.63 mg/kg/injection, schedule: Q01DX009 (ip), vehicle: saline): 149 % of control
T/C (T/C endpoint: mean survival time, dose: 3.8 mg/kg/injection, schedule: Q04DX003 (ip), vehicle: saline): 128 % of control
T/C (T/C endpoint: mean survival time, dose: 5.0 mg/kg/injection, schedule: Q01DX009 (ip), vehicle: saline): 146 % of control
T/C (T/C endpoint: mean survival time, dose: 10.0 mg/kg/injection, schedule: Q01DX009 (ip), vehicle: saline): 127 % of control

S=C1NC(/C=C/c2ccccc2)Nc2ccccc21 (centres undefined)
survivor count [3]: 6 of 6

C1CCC(CCC2CCCC[N-]2)[N-]C1.[I][Zn][I] (centres undefined)
survivor count [6]: 0 of 3

C=COCC(C)C (tested in a mixture with another compound)
survivor count (T/C endpoint: mean survival time, dose: 6.25 mg/kg/injection, schedule: Q04DX003 (ip), vehicle: other): 2 of 6
survivor count (T/C endpoint: mean survival time, dose: 25.0 mg/kg/injection, schedule: Q04DX003 (ip), vehicle: saline with Tween-80): 5 of 6
survivor count (T/C endpoint: mean survival time, dose: 37.5 mg/kg/injection, schedule: Q01DX009 (ip), vehicle: saline): 0 of 6
survivor count [7]: 0 of 6
survivor count (T/C endpoint: mean survival time, dose: 75.0 mg/kg/injection, schedule: Q01DX009 (ip), vehicle: saline): 0 of 6 and 2 of 6
survivor count (T/C endpoint: mean survival time, dose: 150.0 mg/kg/injection, schedule: Q01DX009 (ip), vehicle: saline): 0 of 6

CC/C(=N/NC(=O)c1ccccc1)c1ccccc1
survivor count (T/C endpoint: mean survival time, dose: 200.0 mg/kg/injection, schedule: Q01DX009 (ip), vehicle: Klucel (hydroxypropylcellulose) (HPC)): 5 of 6
survivor count (T/C endpoint: mean survival time, dose: 400.0 mg/kg/injection, schedule: Q01DX009 (ip), vehicle: Klucel (hydroxypropylcellulose) (HPC)): 0 of 6

CC(C)(C)NSc1nc2ccccc2s1
survivor count [3]: 6 of 6

Cc1cc(C)c2c(C#N)cn(-c3cccc(Cl)c3)c2n1
T/C [4]: 130 % of control
survivor count [5]: 1 of 3

CCOC(=O)CC/C=C/Cc1c(OC)c(C)c2c(c1OC(=O)NCc1ccc(N(CC)CC)cc1)C(=O)OC2
T/C (T/C endpoint: mean survival time, dose: 200.0 mg/kg/injection, schedule: Q04DX002 (ip), vehicle: saline with Tween-80): 125 % of control (2×)
T/C (T/C endpoint: mean survival time, dose: 400.0 mg/kg/injection, schedule: Q04DX002 (ip), vehicle: saline with Tween-80): 125 % of control (2×)

Nc1ncnc2c(C3OC(CO)C(O)C3O)c[nH]c12 (centres undefined)
T/C (T/C endpoint: median survival time, dose: 0.2 mg/kg/injection, schedule: Q01DX005 (ip), vehicle: saline): 126 and 128 % of control

CCC(=O)Nc1cccc(OS(=O)(=O)N(C)C)c1
survivor count [1]: 6 of 6

CCCc1ccc(OC)cc1
survivor count [8]: 3 of 6
survivor count [3]: 4 of 6

CNCCNC1=C(Cl)C(=O)c2ccccc2C1=O
survivor count [7]: 0 of 6
survivor count [1]: 0 of 6

Oc1ccc(I)c2cccnc12
survivor count (T/C endpoint: mean survival time, dose: 22.5 mg/kg/injection, schedule: Q01DX009 (ip), vehicle: saline): 6 of 6
survivor count (T/C endpoint: mean survival time, dose: 360.0 mg/kg/injection, schedule: Q01DX009 (ip), vehicle: saline): 4 of 6

CCCCCCCCCCCCNC(=O)c1cc[n+](C)cc1
survivor count [9]: 2 of 6
survivor count [10]: 0 of 6
survivor count [11]: 1 of 6
survivor count [4]: 0 of 6
survivor count [5]: 0 of 6

c1ccc(C(c2ccccc2)n2ccnc2)cc1
survivor count (T/C endpoint: mean survival time, dose: 300.0 mg/kg/injection, schedule: Q01DX001 (ip), vehicle: saline): 2 of 6

CC1CCC2(OC1)OC1C(O)C3C4CCC5CC(OC6OC(CO)C(OC7OC(CO)C(O)C(OC8OCC(O)C(O)C8O)C7OC7OC(CO)C(O)C(OC8OC(CO)C(O)C(O)C8O)C7O)C(O)C6O)C(O)CC5(C)C4CCC3(C)C1C2C (centres undefined)
survivor count (T/C endpoint: mean survival time, dose: 100.0 mg/kg/injection, schedule: Q01DX001 (ip), vehicle: saline): 0 of 3
survivor count (T/C endpoint: mean survival time, dose: 200.0 mg/kg/injection, schedule: Q01DX001 (ip), vehicle: saline): 0 of 3
survivor count [6]: 0 of 3

COc1cccc2c1C(=O)c1c(O)c3c(c(O)c1C2=O)C[C@@](O)(/C(C)=N\NC(=O)CO)C[C@@H]3OC1CC(N)C(O)C(C)O1 (some centres undefined)
T/C (T/C endpoint: mean survival time, dose: 5.56 mg/kg/injection, schedule: Q04DX003 (ip), vehicle: saline): 137 % of control [5 of 6 alive]
T/C (T/C endpoint: mean survival time, dose: 6.25 mg/kg/injection, schedule: Q01DX009 (ip), vehicle: saline): 136 % of control
T/C (T/C endpoint: mean survival time, dose: 6.25 mg/kg/injection, schedule: Q01DX009 (ip), vehicle: water): 130 % of control
T/C (T/C endpoint: mean survival time, dose: 8.0 mg/kg/injection, schedule: Q04DX003 (ip), vehicle: saline with Tween-80): 125 % of control
T/C (T/C endpoint: mean survival time, dose: 12.5 mg/kg/injection, schedule: Q04DX003 (ip), vehicle: saline): 136 % of control
T/C (T/C endpoint: mean survival time, dose: 18.7 mg/kg/injection, schedule: Q04DX003 (ip), vehicle: saline): 139 % of control
survivor count [9]: 5 of 6
survivor count (T/C endpoint: mean survival time, dose: 25.0 mg/kg/injection, schedule: Q01DX009 (ip), vehicle: water): 0 of 6
survivor count [10]: 1 of 6
survivor count (T/C endpoint: mean survival time, dose: 100.0 mg/kg/injection, schedule: Q01DX009 (ip), vehicle: saline): 0 of 6
survivor count [11]: 4 of 6
survivor count [4]: 0 of 6
survivor count [5]: 1 of 6

c1ccc2sc(SCCSc3nc4ccccc4s3)nc2c1
survivor count (T/C endpoint: mean survival time, dose: 50.0 mg/kg/injection, schedule: Q04DX002 (ip), vehicle: saline with Tween-80): 3 of 3
survivor count [12]: 3 of 3

Nc1cccc2cnccc12
survivor count [13]: 2 of 6

CC(C)CC(C)OP(=S)(S)OC(C)CC(C)C.[Cd] (centres undefined)
survivor count [12]: 0 of 3

CCOC(=O)/C=C/SCCCN
survivor count [5]: 1 of 6

O=[N+]([O-])c1ccc(N/N=C/C(Br)(Br)Br)c([N+](=O)[O-])c1
survivor count [1]: 1 of 6

COC(=O)C(CCC(=O)C=[N+]=N)NC(=O)C(Cl)Cl (centres undefined)
survivor count (T/C endpoint: mean survival time, dose: 50.0 mg/kg/injection, schedule: Q01DX009 (ip), vehicle: saline with Tween-80): 6 of 6
survivor count (T/C endpoint: mean survival time, dose: 100.0 mg/kg/injection, schedule: Q01DX009 (ip), vehicle: saline with Tween-80): 6 of 6
survivor count [8]: 0 of 6

CC1(O)CC23CC(O)C4(O)C(CC(O)C4(C)C)C(C)(O)C2CCC1C3O (centres undefined)
survivor count (T/C endpoint: median survival time, dose: 1.0 mg/kg/injection, schedule: Q01DX009 (ip), vehicle: Klucel (hydroxypropylcellulose) (HPC)): 1 of 10

CCOC(=O)c1ccc(OC(=O)Nc2cc(OC)ccc2OC)cc1
survivor count [13]: 4 of 6
